Results reported in paper PMC2918522, “Characterization of the first beta-class carbonic anhydrase from an arthropod (Drosophila melanogaster) and phylogenetic analysis of beta-class carbonic anhydrases in invertebrates” (BMC Biochemistry, 2010).

Biological target: T1, DmBCA (Drosophila melanogaster, UniProt Q9VHJ5)
T1 construct: gene CAHbeta; C-terminal thrombin site and His6; baculovirus/Sf9, purified from culture supernatant; thrombin treatment to remove tag; 28/27 kDa before/after thrombin; dimer
T1 sequence (Q9VHJ5 1-255): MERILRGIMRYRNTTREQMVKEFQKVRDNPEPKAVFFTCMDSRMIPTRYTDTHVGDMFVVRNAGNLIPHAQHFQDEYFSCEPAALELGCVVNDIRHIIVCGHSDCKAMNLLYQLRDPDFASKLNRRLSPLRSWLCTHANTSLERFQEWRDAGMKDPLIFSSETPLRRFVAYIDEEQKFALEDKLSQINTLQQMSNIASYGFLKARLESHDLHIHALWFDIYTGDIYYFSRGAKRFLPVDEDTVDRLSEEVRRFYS
Assay: stopped-flow CO2 hydration assay
Type: biochemical
Conditions: read-out: KI (nM)^c
Excerpt: stopped-flow CO2 hydration assay on DmBCA

Q: CC(=O)Nc1nnc(S(N)(=O)=O)s1 [acetazolamide, 5-acetamido-1,3,4-thiadiazole-2-sulfonamide] was tested. Which Ki did it give?
A: The Ki was 49 nM.
